This note sets out measurements from paper PMC12172431.

These are yes or no findings as the source states them, for the method shown. Binding seen in cells or lysates may run through a third protein. For some of these results: A result given as binding can be weak or reduced; the word gives no strength. For some of these results: Tags and fused reporters may be left off the sequences shown.

Assay [1] concerns the target T1, Flag-tagged Ac66 (AcMNPV) (UniProt P41467).
T1 sequence: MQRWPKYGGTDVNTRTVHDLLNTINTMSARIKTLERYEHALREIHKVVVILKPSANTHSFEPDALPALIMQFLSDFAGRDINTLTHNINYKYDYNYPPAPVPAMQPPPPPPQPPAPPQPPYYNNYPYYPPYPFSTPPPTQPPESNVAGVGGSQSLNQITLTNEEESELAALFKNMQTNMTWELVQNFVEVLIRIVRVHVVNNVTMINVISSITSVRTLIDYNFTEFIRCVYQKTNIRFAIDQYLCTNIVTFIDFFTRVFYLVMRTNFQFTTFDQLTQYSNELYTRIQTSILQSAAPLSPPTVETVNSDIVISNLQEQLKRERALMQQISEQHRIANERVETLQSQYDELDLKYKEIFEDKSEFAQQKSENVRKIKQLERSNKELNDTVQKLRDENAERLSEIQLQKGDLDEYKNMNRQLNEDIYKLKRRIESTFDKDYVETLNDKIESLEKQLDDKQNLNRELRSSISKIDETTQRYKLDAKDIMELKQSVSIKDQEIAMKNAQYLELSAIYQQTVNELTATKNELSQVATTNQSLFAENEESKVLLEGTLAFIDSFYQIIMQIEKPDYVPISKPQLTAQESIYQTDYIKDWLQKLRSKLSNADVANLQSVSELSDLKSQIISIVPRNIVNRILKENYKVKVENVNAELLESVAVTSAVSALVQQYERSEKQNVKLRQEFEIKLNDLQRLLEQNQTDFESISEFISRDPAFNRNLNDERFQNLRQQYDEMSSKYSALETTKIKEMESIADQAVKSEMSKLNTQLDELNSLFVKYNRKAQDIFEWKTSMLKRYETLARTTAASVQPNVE
The assay can be described thus: co-IP; Sf9 cells co-transfected with bacmid DNA of vAc51ΔDnaJ, vAc51ΔRRM or vAc51ΔCC and pUC18-Ac66Flag; lysate on anti-Flag or IgG magnetic beads; western blot. For orientation: Immunoblotting shows a protein as a band on a membrane.

Assay [2] deals with T2, Ac51 (AcMNPV) (UniProt P41455).
T2 sequence: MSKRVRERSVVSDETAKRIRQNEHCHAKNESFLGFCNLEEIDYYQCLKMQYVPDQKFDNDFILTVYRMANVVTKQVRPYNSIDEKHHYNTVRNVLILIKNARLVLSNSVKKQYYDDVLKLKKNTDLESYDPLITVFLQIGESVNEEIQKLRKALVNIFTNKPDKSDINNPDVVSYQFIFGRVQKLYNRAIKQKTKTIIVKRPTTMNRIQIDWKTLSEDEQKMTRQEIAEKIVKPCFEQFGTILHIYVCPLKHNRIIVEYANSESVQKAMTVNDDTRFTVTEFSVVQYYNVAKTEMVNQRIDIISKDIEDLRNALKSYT
Description: co-IP; Sf9 cells infected with vAcWT^Ac66Flag or vAcWT^EXON0Flag (MOI 5), 48 h p.i.; lysate on Flag-conjugated magnetic beads, or anti-Ac51 antibody with protein A/G agarose, 4°C overnight; IgG control; western blot.

As to Ac51ΔCC (AcMNPV) (domain or fragment), the binding entry in assay [1] is “binds”.
On the same count and under the same terms, the value for Ac51ΔDnaJ (AcMNPV) (domain or fragment) was “binds weakly”.
Still for that read-out and setting: the value for Ac51ΔRRM (AcMNPV) (domain or fragment) was “binds”.
For the substance Flag-tagged EXON0 (AcMNPV), the binding entry in assay [2] is reported as “no binding”.
